In publication PMC10128056 one finds binding data, which are given here for three molecules.

No constants are given. Whether binding was seen depends on the method and setting. Some binding calls cover weakened binding; strength is not graded here.

Common to all, as to assay: two-hybrid; BACTH bacterial two-hybrid in BTH101 E. coli; each protein as N- and C-terminal fusion to T18 and T25; blue-white assay on X-Gal plates (24 h at 30°C, four replicates) and quantitative β-galactosidase assays (triplicate, normalised to the Zip positive control)
The target in assay [1] is L. monocytogenes GlmS (L. monocytogenes) (UniProt Q8Y915).
The target of assay [2] is T1, B. subtilis GlmS (B. subtilis) (UniProt P0CI73).
T1 sequence: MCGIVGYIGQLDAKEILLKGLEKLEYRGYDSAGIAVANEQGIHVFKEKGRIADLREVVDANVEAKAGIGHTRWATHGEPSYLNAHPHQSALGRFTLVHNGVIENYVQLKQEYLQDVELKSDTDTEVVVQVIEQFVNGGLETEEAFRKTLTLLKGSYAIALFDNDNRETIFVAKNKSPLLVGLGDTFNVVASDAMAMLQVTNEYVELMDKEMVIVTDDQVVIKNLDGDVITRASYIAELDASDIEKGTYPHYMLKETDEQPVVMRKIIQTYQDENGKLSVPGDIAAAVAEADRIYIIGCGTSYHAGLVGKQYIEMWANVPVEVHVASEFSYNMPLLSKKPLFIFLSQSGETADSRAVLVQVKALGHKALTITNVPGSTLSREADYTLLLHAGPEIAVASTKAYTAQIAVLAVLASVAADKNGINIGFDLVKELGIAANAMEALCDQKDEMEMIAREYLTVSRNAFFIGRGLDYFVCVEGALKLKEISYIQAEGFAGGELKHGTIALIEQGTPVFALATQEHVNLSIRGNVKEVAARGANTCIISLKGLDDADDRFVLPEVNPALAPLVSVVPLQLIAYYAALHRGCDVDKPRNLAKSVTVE

In assay [3] the target is B. subtilis GlmR (B. subtilis) (UniProt O06974).

B1: L. monocytogenes GlmS (enzyme, UniProt Q8Y915 1-601)
chain: MCGIVGYIGTNNAKGILLEGLEKLEYRGYDSAGIALQNKELVTVVKEKGRIADLASLVPSDAFGTTGIGHTRWATHGKPNHENAHPHQSKSGRFTIVHNGVIENYTLLKEEYLKNHSFVSDTDTEVIVQLIELFAAELSTKEAFKKALSLLHGSYAICLIDQTNTETLYAAKNKSPLLIGKGENFNVIASDAMAVLKETDEFVEIMDKEIVIVTKDGFTLETLEGEEITRASYKAELDASDIEKGTYPHYMLKEIDEQPAVTRKIIQAYQDEAGEINVDKTIIDEILSSDRIHIVACGTSYHAGLVGKNLIEKMAKIPVEVHVSSEFAYNLPLMSKKPLFIFITQSGETADSRQCLVKVKELGYRTLTLTNVPGSTLDREADHSMYLYAGPEIAVASTKAYTAQISVLAVLAVSLGREIGDEEALNINLAAELGIVATAMEAMVSSKEVIEHIAGEYLATSRNAFFLGRNIDYFVAMEAALKLKEISYIQAEGFASGELKHGTIALIEDGTPVLALITQESINWNIRGNVNEVLARGAKTCIFAMENVAQPGDRFVIPQVHPLLTPLASVIPCQLLAYYAALHRDCDVDKPRNLAKSVTVE
Turning to B1, the binding result in assay [1] is given as “binds”.

B2: B. subtilis GlmR (protein, UniProt O06974 1-317)
chain: MGQKPKIAIFGGGTGLSVLLRGLKHKPVDITAIVTVADDGGSSGRLRNELKIPPPGDIRNVLAALSDVEPLVEDLFQHRFNKGNDLTGHSLGNLILAAMTNITGDFFHAVTEMSKVLNVRGKVLPAANASVVLHAEMEDGRVVSGESTIPEYGQRIKRVFLTPEQIDPLPETIDVIREADLIIIGPGSLYTSILPNLLVPKIGEEVIKAPAKKVYICNVMTQPGETLHYTAADHVKALNQHMGCGFIDTILVNSEDIPDEIKRKYEMESARPVDFDIEELKAMGLEVIRDQIVTYKNDVIRHDTHKVASLLVDLLKE
With B2, the binding entry in assay [2] and in assay [3] was “binds” each time.

B3: B. subtilis GlmS (enzyme, UniProt P0CI73 1-600)
chain: MCGIVGYIGQLDAKEILLKGLEKLEYRGYDSAGIAVANEQGIHVFKEKGRIADLREVVDANVEAKAGIGHTRWATHGEPSYLNAHPHQSALGRFTLVHNGVIENYVQLKQEYLQDVELKSDTDTEVVVQVIEQFVNGGLETEEAFRKTLTLLKGSYAIALFDNDNRETIFVAKNKSPLLVGLGDTFNVVASDAMAMLQVTNEYVELMDKEMVIVTDDQVVIKNLDGDVITRASYIAELDASDIEKGTYPHYMLKETDEQPVVMRKIIQTYQDENGKLSVPGDIAAAVAEADRIYIIGCGTSYHAGLVGKQYIEMWANVPVEVHVASEFSYNMPLLSKKPLFIFLSQSGETADSRAVLVQVKALGHKALTITNVPGSTLSREADYTLLLHAGPEIAVASTKAYTAQIAVLAVLASVAADKNGINIGFDLVKELGIAANAMEALCDQKDEMEMIAREYLTVSRNAFFIGRGLDYFVCVEGALKLKEISYIQAEGFAGGELKHGTIALIEQGTPVFALATQEHVNLSIRGNVKEVAARGANTCIISLKGLDDADDRFVLPEVNPALAPLVSVVPLQLIAYYAALHRGCDVDKPRNLAKSVTVE
Take B3: the binding result in assay [2] was “binds”.
